Source: the supplement of paper PMC10849652
This is one part of the list.

Protein sequences, listed by entry. Tags and fused reporters are not part of them. Lines headed by an entry give the natural chain unless they say otherwise; changes in a name come on top.
UniProt Q99717: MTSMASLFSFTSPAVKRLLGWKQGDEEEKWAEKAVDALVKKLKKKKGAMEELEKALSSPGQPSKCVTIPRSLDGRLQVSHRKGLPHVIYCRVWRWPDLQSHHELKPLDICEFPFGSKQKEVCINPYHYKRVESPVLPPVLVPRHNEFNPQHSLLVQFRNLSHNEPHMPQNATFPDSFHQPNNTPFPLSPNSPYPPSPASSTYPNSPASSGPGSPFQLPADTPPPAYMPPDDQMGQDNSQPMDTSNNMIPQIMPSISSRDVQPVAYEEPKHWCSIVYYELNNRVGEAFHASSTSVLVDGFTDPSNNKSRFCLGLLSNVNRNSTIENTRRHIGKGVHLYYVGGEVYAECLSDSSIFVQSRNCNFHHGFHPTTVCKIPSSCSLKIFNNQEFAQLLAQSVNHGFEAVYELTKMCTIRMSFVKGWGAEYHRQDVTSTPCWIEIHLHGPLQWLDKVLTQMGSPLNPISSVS
UniProt Q8NEW0: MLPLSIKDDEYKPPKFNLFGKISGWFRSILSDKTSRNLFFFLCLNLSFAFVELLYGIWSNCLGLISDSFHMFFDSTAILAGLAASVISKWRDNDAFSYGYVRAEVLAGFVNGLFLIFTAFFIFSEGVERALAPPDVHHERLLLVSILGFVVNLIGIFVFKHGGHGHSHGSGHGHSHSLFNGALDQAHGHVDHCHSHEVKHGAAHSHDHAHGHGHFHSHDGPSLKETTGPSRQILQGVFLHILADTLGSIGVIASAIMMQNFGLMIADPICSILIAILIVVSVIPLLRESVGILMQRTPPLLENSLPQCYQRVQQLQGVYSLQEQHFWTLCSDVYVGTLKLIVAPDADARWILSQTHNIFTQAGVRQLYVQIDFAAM
UniProt Q15796, whole entry, looked up: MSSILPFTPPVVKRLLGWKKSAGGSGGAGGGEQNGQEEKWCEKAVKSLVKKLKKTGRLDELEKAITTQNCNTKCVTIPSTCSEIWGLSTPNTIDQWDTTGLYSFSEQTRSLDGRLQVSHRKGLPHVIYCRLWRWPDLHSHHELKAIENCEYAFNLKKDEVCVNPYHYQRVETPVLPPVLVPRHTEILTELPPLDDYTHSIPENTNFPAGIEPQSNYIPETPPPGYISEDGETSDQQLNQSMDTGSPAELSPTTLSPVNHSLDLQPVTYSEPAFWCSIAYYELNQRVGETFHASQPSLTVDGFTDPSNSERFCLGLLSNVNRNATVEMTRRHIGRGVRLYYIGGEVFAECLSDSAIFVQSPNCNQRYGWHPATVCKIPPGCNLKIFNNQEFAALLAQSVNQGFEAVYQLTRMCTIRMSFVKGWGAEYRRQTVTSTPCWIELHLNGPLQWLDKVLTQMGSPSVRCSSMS
UniProt Q0VAQ4: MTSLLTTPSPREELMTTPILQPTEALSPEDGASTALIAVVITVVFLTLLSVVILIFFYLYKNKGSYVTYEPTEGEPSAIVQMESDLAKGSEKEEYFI
UniProt Q96QD8: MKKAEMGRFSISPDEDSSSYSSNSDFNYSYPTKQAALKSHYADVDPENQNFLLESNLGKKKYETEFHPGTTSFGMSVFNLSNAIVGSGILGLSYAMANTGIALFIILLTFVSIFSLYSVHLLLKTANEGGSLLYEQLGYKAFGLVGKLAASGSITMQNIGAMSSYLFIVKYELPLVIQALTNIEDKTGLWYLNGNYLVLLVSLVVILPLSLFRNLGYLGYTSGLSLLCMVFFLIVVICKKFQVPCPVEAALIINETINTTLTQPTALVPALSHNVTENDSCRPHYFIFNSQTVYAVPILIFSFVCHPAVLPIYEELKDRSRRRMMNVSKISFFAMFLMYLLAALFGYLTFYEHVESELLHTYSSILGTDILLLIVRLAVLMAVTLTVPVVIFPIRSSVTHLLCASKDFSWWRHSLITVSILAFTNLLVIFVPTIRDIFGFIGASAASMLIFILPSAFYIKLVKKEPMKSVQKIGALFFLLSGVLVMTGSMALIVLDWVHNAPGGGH
UniProt Q6ZP29: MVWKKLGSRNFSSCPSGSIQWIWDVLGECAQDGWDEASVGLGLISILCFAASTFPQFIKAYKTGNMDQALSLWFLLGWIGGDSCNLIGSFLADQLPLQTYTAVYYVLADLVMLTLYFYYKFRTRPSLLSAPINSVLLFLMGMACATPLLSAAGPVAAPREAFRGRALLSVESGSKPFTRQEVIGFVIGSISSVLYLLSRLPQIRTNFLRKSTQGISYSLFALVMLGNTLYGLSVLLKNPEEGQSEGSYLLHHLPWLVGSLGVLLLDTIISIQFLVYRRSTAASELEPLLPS
UniProt O00400: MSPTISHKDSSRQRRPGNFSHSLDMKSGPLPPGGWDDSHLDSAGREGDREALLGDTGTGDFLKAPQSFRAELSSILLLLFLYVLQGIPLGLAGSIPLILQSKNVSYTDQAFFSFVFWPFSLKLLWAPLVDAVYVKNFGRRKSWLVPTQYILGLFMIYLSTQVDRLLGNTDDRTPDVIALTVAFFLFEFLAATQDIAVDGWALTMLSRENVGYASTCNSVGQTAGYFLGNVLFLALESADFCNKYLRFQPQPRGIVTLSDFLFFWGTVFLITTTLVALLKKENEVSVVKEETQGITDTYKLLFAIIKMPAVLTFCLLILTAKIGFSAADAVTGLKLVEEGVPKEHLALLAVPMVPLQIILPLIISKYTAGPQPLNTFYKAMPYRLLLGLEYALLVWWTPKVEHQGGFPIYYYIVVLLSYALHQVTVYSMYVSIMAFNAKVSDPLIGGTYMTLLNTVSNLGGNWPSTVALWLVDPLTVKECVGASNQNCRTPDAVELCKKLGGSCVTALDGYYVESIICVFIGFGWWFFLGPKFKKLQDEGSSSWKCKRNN
UniProt Q9NVC3: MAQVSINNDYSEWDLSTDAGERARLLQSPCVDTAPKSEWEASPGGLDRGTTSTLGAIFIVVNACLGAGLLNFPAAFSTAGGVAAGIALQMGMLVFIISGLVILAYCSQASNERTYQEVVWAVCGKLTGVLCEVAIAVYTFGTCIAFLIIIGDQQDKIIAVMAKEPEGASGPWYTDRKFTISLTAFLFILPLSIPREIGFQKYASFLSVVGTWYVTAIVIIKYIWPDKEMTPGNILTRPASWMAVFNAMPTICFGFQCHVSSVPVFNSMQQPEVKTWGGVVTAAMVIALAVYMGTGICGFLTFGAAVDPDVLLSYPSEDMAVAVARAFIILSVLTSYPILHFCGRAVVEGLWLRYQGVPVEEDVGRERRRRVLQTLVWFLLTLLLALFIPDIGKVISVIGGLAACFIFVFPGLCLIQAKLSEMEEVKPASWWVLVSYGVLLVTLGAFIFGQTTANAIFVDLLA
UniProt Q8TAD4: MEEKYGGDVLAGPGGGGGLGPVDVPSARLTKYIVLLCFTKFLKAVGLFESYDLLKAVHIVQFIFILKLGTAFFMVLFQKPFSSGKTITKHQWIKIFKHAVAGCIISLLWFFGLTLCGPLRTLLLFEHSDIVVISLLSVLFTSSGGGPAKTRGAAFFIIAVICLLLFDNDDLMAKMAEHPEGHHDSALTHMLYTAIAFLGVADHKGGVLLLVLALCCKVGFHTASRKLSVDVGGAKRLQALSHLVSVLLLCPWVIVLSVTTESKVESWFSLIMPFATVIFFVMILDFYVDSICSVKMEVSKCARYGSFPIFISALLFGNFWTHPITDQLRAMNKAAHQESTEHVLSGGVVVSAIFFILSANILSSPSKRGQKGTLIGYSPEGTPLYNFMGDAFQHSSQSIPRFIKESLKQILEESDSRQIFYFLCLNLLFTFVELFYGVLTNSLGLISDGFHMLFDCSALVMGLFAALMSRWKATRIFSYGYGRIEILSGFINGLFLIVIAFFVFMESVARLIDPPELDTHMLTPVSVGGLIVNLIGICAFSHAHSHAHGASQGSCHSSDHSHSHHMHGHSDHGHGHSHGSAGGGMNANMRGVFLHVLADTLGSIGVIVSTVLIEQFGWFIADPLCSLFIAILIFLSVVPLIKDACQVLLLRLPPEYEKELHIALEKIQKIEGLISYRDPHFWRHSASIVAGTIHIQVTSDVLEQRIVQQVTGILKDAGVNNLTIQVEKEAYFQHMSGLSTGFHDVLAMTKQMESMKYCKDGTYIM
UniProt P48067: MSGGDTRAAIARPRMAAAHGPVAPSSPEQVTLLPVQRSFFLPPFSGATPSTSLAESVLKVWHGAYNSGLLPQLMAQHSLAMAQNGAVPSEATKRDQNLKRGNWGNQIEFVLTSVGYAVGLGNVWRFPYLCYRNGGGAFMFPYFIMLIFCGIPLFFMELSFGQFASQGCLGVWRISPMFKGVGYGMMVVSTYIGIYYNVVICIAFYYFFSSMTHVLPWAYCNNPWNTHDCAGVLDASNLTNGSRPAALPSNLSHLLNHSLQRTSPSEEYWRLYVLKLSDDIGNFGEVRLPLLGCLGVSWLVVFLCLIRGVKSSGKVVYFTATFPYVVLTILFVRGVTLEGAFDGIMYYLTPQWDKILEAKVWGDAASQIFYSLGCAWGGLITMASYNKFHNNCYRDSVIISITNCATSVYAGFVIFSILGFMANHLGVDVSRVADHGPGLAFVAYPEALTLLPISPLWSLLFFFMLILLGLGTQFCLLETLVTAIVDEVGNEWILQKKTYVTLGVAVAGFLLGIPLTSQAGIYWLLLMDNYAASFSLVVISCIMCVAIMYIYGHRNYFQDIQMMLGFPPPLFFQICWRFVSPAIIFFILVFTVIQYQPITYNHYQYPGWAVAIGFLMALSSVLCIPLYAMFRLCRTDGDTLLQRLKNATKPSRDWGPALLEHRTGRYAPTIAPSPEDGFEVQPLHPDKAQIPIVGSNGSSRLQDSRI
UniProt Q8WU79: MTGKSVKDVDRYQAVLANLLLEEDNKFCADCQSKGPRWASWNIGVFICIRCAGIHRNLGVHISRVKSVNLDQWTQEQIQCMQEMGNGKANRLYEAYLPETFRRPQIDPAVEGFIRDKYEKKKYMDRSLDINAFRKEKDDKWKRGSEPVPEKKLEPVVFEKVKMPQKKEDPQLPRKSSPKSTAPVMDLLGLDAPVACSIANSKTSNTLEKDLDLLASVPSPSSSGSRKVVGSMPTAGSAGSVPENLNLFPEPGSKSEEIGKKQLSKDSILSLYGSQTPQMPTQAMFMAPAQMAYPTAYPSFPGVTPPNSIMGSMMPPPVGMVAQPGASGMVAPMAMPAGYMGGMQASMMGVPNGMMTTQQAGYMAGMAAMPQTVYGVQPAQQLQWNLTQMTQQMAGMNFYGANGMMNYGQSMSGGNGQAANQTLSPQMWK
UniProt Q6NXT4: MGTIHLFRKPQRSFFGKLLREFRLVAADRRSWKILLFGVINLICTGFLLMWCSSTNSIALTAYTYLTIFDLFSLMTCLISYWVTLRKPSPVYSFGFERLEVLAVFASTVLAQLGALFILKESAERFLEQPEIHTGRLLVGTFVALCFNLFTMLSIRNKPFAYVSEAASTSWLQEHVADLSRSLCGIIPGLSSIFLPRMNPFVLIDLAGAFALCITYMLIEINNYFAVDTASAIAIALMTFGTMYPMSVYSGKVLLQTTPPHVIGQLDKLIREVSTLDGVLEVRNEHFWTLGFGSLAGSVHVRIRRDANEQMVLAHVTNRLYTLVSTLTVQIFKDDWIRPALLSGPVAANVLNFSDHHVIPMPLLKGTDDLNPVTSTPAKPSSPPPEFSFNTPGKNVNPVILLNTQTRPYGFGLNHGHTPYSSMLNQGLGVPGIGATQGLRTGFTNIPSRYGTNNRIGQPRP
UniProt P0CK96: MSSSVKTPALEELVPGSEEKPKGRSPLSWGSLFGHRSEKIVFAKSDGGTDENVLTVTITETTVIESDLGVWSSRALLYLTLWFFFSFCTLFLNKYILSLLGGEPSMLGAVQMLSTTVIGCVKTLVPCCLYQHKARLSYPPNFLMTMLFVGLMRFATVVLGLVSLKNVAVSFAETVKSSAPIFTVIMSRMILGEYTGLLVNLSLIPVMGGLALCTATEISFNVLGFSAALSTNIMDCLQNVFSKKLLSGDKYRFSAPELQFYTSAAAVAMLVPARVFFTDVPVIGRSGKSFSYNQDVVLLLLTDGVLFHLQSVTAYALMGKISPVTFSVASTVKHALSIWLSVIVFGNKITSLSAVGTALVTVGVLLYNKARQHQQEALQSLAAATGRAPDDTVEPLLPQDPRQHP
UniProt Q9Y2P4: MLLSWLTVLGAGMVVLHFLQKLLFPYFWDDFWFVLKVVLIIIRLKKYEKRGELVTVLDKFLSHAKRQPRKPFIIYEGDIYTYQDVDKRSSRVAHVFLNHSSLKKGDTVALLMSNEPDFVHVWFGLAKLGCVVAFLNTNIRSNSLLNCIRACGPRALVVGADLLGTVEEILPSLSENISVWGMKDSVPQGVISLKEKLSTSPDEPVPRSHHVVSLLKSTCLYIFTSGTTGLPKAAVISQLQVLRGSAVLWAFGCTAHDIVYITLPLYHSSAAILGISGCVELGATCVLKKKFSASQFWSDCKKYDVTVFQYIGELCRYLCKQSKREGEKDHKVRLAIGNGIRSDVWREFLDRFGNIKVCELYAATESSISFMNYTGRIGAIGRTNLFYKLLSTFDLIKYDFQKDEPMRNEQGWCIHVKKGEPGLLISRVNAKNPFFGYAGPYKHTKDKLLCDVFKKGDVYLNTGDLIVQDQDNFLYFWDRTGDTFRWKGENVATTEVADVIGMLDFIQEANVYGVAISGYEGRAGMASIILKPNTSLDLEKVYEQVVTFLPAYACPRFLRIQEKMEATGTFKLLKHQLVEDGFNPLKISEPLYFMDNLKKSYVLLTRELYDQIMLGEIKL

What was measured:
Experiment in all cases: log2 fold change, soluble protein after heating vs DMSO (PISA); higher = thermal stabilisation; K562 lysate, 10 uM; active = over 0.2 and 3.5 SD of the protein, either way, in both replicates (recomputed)
nilotinib = compound: Cc1cn(-c2cc(NC(=O)c3ccc(C)c(Nc4nccc(-c5cccnc5)n4)c3)cc(C(F)(F)F)c2)cn1 [nilotinib]
Summary of the method: (§1)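 A 30 min treatment with 10 μM compound was applied to crude K562 extract at 1 mg/mL protein in PBS pH 7.4 with 1 mM MgCl2. Heating for 3 min spanned 48°C-58°C, after which aliquots were pooled, adjusted to 0.5% NP-40 at 4°C and spun at 21,000xg for 90 min. TMTpro 16plex LC-MS/MS of the supernatant, with channel sums equalised, gave values recorded as log-two fold change in thermal stability against solvent controls, from duplicates.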

[1] = compound: Cc1nc(Nc2n[nH]c3c2CN(C(=O)N[C@H](CN(C)C)c2ccccc2)C3(C)C)c2sccc2n1
Summary of the method: as §1

dasatinib = compound: Cc1nc(Nc2ncc(C(=O)Nc3c(C)cccc3Cl)s2)cc(N2CCN(CCO)CC2)n1 [dasatinib]
Summary of the method: as §1

[2] = compound: Cc1ncc(-c2ccnc(Nc3ccc(S(C)(=O)=O)cc3)n2)n1C(C)C
Summary of the method: as §1

[3] = compound: Cn1cc(-c2ccc3c(c2)CCN3C(=O)Cc2cccc(C(F)(F)F)c2)c2c(N)ncnc21
Summary of the method: as §1

quisinostat = compound: Cn1cc(CNCC2CCN(c3ncc(C(=O)NO)cn3)CC2)c2ccccc21 [quisinostat]
Summary of the method: as §1

tipifarnib = compound: Cn1cncc1[C@@](N)(c1ccc(Cl)cc1)c1ccc2c(c1)c(-c1cccc(Cl)c1)cc(=O)n2C [tipifarnib]
Summary of the method: as §1

[4] = compound: NC(=O)Nc1cc(-c2cccc(F)c2)sc1C(=O)N[C@H]1CCCNC1
Summary of the method: as §1

[5] = compound: NC(=O)c1cnc(N[C@@H]2CCCC[C@@H]2N)nc1Nc1cccc(-n2nccn2)c1
Summary of the method: as §1

[6] = compound: O=C1NC(=O)C(c2cnc3ccccn23)=C1c1cn2c3c(cc(F)cc13)CN(C(=O)N1CCCCC1)CC2
Summary of the method: as §1

[7] = compound: NC1(c2ccc(-c3nc4ccn5c(=O)[nH]nc5c4cc3-c3ccccc3)cc2)CCC1
Summary of the method: as §1

[8] = compound: NCC(=O)Nc1ccc(-n2nc(C(F)(F)F)cc2-c2ccc3c(ccc4ccccc43)c2)cc1
Summary of the method: as §1

vorinostat = compound: O=C(CCCCCCC(=O)Nc1ccccc1)NO [vorinostat]
Summary of the method: as §1

silmitasertib = compound: O=C(O)c1ccc2c(c1)nc(Nc1cccc(Cl)c1)c1ccncc12 [silmitasertib]
Summary of the method: as §1

entospletinib = compound: c1cn2cc(-c3ccc4cn[nH]c4c3)nc(Nc3ccc(N4CCOCC4)cc3)c2n1 [entospletinib]
Summary of the method: as §1

Row | Target | log2 fold change (nilotinib) | log2 fold change [1] | log2 fold change (dasatinib) | log2 fold change [2] | log2 fold change [3] | log2 fold change (quisinostat) | log2 fold change (tipifarnib) | log2 fold change [4] | log2 fold change [5] | log2 fold change [6] | log2 fold change [7] | log2 fold change [8] | log2 fold change (vorinostat) | log2 fold change (silmitasertib) | log2 fold change (entospletinib)
1 | SMAD3 (UniProt P84022) | inactive: -0.002 | inactive: 0.007 | inactive: -0.038 | inactive: 0 | inactive: -0.078 | inactive: -0.033 | inactive: -0.035 | inactive: -0.021 | inactive: -0.009 | inactive: 0.042 | – | – | – | – | –
2 | SMAD5 (UniProt Q99717) | inactive: -0.004 | inactive: 0.043 | inactive: -0.011 | inactive: 0.031 | inactive: -0.041 | inactive: -0.079 | inactive: 0.277 | inactive: -0.023 | – | inactive: -0.09 | inactive: 0.05 | inactive: -0.009 | inactive: 0.002 | inactive: -0.104 | inactive: -0.004
3 | SLC30A7 (UniProt Q8NEW0) | inactive: 0.006 | inactive: -0.071 | inactive: -0.065 | inactive: -0.055 | inactive: -0.102 | inactive: 0.108 | inactive: 0.387 | inactive: -0.183 | inactive: 0.033 | inactive: -0.021 | – | inactive: 0.034 | – | – | inactive: -0.301
4 | SMAD2 (UniProt Q15796) | inactive: 0.025 | inactive: 0.116 | inactive: 0.006 | inactive: -0.059 | inactive: 0.011 | inactive: -0.012 | inactive: 0.055 | inactive: 0.038 | inactive: -0.015 | inactive: 0.008 | inactive: 0.042 | inactive: -0.025 | active: -0.752 | inactive: -0.051 | inactive: -0.049
5 | SMAGP (UniProt Q0VAQ4) | inactive: -0.018 | inactive: 0.05 | inactive: 0 | inactive: 0.161 | inactive: 0.005 | inactive: -0.004 | inactive: -0.084 | inactive: 0.1 | inactive: 0.026 | inactive: 0.089 | inactive: 0.028 | – | inactive: 0.294 | inactive: -0.286 | inactive: 0.017
6 | SLC38A2 (UniProt Q96QD8) | inactive: -0.002 | inactive: 0.018 | inactive: 0.015 | inactive: -0.005 | inactive: -0.051 | inactive: -0.051 | inactive: -0.058 | inactive: 0.045 | inactive: -0.038 | inactive: -0.042 | inactive: 0.01 | inactive: -0.045 | inactive: 0.048 | inactive: -0.037 | inactive: 0.05
7 | SLC66A1 (UniProt Q6ZP29) | inactive: 0.133 | inactive: 0.088 | – | inactive: -0.129 | – | inactive: 0.132 | inactive: 0.097 | inactive: 0.067 | inactive: 0.154 | inactive: -0.085 | inactive: -0.006 | – | inactive: 0.021 | inactive: -0.058 | –
8 | SLC33A1 (UniProt O00400) | inactive: 0.142 | inactive: -0.011 | inactive: -0.012 | inactive: -0.003 | inactive: -0.07 | inactive: -0.047 | inactive: -0.071 | inactive: 0.018 | inactive: -0.001 | inactive: -0.028 | inactive: 0.024 | inactive: -0.004 | inactive: 0.094 | inactive: -0.026 | inactive: -0.002
9 | SLC38A7 (UniProt Q9NVC3) | inactive: 0.046 | inactive: 0.012 | inactive: 0.047 | inactive: -0.097 | inactive: 0.016 | inactive: -0.059 | inactive: 0.03 | inactive: -0.005 | inactive: 0.034 | inactive: -0.007 | inactive: 0.032 | inactive: 0 | inactive: 0.117 | inactive: 0.057 | inactive: 0.02
10 | SLC30A5 (UniProt Q8TAD4) | inactive: -0.028 | inactive: 0.009 | inactive: 0 | inactive: 0.029 | inactive: -0.045 | inactive: -0.003 | inactive: -0.053 | inactive: 0.009 | inactive: -0.019 | inactive: -0.049 | inactive: -0.059 | inactive: -0.026 | inactive: 0.046 | inactive: -0.008 | inactive: 0.018
11 | SLC6A9 isoform 2 (UniProt P48067) | inactive: -0.033 | inactive: -0.002 | inactive: 0.105 | inactive: -0.002 | inactive: -0.052 | inactive: -0.041 | inactive: 0.102 | inactive: 0.049 | inactive: -0.036 | inactive: 0.011 | inactive: -0.044 | inactive: -0.045 | inactive: 0.008 | inactive: -0.027 | inactive: -0.002
12 | SMAP2 (UniProt Q8WU79) | inactive: -0.058 | inactive: 0.026 | inactive: -0.013 | inactive: 0.037 | inactive: 0.06 | inactive: 0.072 | inactive: -0.038 | inactive: 0.076 | inactive: 0.026 | inactive: -0.04 | inactive: 0.022 | inactive: 0 | inactive: -0.032 | inactive: 0.017 | inactive: -0.028
13 | SLC25A39 (UniProt Q9BZJ4) | inactive: -0.035 | inactive: 0.091 | inactive: -0.084 | inactive: 0.004 | inactive: -0.306 | – | inactive: -0.241 | – | – | – | inactive: 0.082 | – | inactive: 0.057 | inactive: 0.114 | –
14 | SLC30A6 isoform 2 (UniProt Q6NXT4) | inactive: -0.029 | inactive: 0.118 | – | inactive: -0.067 | – | inactive: -0.048 | inactive: -0.071 | inactive: 0.093 | inactive: 0.012 | inactive: 0.001 | inactive: -0.096 | inactive: 0.014 | inactive: 0.11 | inactive: 0.01 | inactive: 0.064
15 | SLC35E2B (UniProt P0CK96) | – | – | – | – | – | – | – | – | – | – | – | inactive: 0.146 | – | – | inactive: -0.134
16 | SLC27A6 (UniProt Q9Y2P4) | – | – | – | – | – | – | – | – | – | – | inactive: -0.012 | – | inactive: -0.152 | inactive: 0.072 | –
17 | SLC3A2 (UniProt F5H867) | inactive: -0.151 | inactive: -0.03 | – | inactive: -0.039 | – | – | inactive: -0.078 | – | inactive: 0.06 | – | – | – | – | – | –
18 | SLCO4A1 (UniProt Q96BD0) | inactive: -0.006 | inactive: 0.044 | – | inactive: 0.008 | – | – | inactive: 0.076 | – | – | – | – | – | – | – | –

Limited to log2 fold change (dasatinib), log2 fold change [7] and log2 fold change (silmitasertib) (two entries from above):
Row	Target	log2 fold change (dasatinib)	log2 fold change [7]	log2 fold change (silmitasertib)
5	SMAGP (UniProt Q0VAQ4)	inactive: 0	inactive: 0.028	inactive: -0.286
16	SLC27A6 (UniProt Q9Y2P4)	–	inactive: -0.012	inactive: 0.072
